From publication PMC3258242 come the findings set out here.

Amino acid sequences for entries named in this document (tags omitted).
UniProt P14635: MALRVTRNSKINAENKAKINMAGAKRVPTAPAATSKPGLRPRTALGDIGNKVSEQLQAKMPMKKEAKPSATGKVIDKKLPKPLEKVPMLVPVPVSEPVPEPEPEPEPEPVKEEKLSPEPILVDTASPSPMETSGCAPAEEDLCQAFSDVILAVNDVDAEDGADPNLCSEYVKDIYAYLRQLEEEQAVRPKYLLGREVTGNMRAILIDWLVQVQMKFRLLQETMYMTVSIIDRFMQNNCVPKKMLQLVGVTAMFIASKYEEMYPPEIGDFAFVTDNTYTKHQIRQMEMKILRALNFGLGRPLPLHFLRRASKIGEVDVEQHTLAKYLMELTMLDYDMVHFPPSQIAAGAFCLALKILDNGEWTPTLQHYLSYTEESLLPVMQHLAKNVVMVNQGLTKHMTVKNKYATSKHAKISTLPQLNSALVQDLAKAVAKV
UniProt Q6ZVD7: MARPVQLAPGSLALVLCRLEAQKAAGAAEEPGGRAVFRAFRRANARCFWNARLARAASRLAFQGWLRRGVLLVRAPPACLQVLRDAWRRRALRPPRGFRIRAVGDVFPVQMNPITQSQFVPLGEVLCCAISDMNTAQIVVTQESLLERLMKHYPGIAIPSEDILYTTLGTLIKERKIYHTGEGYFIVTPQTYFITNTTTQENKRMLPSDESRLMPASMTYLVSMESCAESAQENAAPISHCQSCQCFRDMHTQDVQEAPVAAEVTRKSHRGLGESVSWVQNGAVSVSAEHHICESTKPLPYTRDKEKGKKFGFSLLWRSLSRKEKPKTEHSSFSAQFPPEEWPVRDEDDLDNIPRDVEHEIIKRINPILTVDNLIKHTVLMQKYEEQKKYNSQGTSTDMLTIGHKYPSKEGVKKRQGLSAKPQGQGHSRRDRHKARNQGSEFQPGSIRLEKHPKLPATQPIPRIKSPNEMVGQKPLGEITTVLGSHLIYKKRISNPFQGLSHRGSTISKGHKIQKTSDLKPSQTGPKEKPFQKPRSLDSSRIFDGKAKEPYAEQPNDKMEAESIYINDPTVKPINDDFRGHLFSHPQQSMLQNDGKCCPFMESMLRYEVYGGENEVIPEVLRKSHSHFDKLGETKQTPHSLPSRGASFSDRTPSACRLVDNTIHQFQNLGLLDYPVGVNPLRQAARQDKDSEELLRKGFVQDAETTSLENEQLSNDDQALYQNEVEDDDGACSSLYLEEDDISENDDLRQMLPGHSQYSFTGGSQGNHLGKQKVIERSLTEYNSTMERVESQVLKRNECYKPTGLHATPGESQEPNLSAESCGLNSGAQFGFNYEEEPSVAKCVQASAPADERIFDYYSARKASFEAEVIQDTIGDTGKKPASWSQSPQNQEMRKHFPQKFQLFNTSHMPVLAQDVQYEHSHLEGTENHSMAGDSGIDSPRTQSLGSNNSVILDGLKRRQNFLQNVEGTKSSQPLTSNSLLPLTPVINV

The target of the assay is cyclin B1 protein (UniProt P14635). As to the kind of experiment: co-IP; preliminary data, data not shown; no details of cells, bait or antibodies told.

These are yes or no findings as the source states them, for the method shown. In cells and extracts the contact can be indirect. Some entries that bind do so weakly or less than the wild type.

Regarding “Storkhead box 1A (from UniProt Q6ZVD7 1-989)”, the binding entry is listed as “binds”.
